# For some of these results: For at least one entry, the source does not settle the construct or the ends of the probe. For some of these results: A negative result means that nothing was seen under these conditions.
# Protein sequences, listed by entry. Tags and fused reporters are not part of them. Residues count along the entry.
# UniProt Q04206, whole entry: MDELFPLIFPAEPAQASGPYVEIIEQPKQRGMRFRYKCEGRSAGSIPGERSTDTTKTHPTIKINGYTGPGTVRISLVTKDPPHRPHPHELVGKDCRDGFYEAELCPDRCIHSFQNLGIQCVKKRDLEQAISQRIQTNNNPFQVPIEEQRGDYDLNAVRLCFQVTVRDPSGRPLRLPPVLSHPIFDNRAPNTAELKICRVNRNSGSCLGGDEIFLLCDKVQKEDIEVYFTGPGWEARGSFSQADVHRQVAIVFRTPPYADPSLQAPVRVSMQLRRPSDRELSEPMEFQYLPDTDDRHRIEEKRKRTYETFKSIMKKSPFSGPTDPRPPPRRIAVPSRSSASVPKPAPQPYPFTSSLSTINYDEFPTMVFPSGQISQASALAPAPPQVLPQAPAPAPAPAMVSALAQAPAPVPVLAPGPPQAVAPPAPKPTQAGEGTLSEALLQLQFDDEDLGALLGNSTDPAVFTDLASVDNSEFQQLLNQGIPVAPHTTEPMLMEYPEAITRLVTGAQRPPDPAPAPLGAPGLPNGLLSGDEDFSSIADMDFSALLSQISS
# UniProt P08047, 2-785: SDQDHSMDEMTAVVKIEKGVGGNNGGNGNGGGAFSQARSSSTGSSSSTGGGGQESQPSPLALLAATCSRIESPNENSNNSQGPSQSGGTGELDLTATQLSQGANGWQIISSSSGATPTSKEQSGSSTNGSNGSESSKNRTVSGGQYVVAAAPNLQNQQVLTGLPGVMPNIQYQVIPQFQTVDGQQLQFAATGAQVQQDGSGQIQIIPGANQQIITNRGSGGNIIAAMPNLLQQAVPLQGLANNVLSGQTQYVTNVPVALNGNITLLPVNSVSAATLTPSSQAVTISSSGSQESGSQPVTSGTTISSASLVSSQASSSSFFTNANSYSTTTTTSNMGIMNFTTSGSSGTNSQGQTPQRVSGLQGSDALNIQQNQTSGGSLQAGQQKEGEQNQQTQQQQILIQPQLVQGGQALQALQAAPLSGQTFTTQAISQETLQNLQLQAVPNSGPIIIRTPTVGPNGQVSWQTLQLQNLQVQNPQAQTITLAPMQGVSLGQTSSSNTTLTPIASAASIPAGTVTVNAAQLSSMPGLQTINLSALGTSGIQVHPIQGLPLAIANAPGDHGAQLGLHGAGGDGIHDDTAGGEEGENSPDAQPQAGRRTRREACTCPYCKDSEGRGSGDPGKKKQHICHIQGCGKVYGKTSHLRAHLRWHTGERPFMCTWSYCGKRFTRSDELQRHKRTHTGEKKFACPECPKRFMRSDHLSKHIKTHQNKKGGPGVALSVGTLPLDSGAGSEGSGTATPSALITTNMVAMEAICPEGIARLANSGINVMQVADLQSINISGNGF
# UniProt P03372, whole entry: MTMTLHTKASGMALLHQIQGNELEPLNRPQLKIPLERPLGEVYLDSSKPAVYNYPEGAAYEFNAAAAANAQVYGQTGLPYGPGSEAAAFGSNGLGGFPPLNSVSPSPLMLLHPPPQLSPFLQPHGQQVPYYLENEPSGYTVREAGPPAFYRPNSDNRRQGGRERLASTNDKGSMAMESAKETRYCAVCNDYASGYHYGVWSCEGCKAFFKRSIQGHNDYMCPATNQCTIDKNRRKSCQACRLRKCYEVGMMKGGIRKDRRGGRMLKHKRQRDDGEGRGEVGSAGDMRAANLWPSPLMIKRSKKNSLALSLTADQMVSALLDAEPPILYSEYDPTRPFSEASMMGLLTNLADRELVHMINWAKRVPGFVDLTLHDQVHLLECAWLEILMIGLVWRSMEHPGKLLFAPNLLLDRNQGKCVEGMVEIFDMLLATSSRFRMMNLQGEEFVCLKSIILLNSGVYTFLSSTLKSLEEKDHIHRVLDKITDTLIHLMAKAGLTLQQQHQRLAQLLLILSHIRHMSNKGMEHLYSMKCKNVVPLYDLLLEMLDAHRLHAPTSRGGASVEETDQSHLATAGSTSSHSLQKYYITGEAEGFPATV
# Key:
# NF-kB p65 (NFkb65) [1] = target: NF-kB p65 (NFkb65) (UniProt Q04206); assay: competition with a labelled probe; conditions: purified recombinant protein, protein details: Panomics
# NF-kB p65 (NFkb65) [2] = target: NF-kB p65 (NFkb65) (UniProt Q04206); assay: EMSA; conditions: purified recombinant protein; protein details: Panomics; label: 5' IRDye 700
# Sp1 [3] = target: Sp1 (UniProt P08047); assay: competition with a labelled probe; conditions: 100:1 unlabeled mutant had no impact; purified recombinant protein; protein details: Promega; variant of YZ9
# Sp1 [4] = target: Sp1 (UniProt P08047); assay: EMSA; conditions: purified recombinant protein; protein details: Promega; label: 5' IRDye 700
# Sp1 [5] = target: Sp1 (UniProt P08047); assay: activity assay; conditions: complex isolated on polyacrylamide column then microarray, purified recombinant protein, protein details: Promega
# Estrogen receptor alpha [6] = target: Estrogen receptor alpha (UniProt P03372); assay: competition with a labelled probe; conditions: with E2; 100:1 unlabeled mutant had no impact; purified recombinant protein; protein details: Invitrogen; variant of YZ11
# Estrogen receptor alpha [7] = target: Estrogen receptor alpha (UniProt P03372); assay: EMSA; conditions: with E2; supershift with antibody; purified recombinant protein; protein details: Invitrogen; label: 5' IRDye 700
sequence,measurement,setting,value
AGCTTCAGAGGGGACTAAACGAGAGGTTTTTTGACTAGACCATTCAAAGCT [YZ8],binding result,"NF-kB p65 (NFkb65) [1]; 100:1 unlabeled mutant did not affect YZ7 binding, variant of YZ7",no binding
AGCTTCAGAGGGGACTTTCCGAGAGGTTTTTTGACTAGACCATTCAAAGCT [YZ7],binding result,NF-kB p65 (NFkb65) [2],binds
ATTCGATCGGGAAAGGGCGAGCGTTATCCCAACTTCGAATCTCATTT [YZ10],binding result,Sp1 [3],no binding
ATTCGATCGGGGCGGGGCGAGCGTTATCCCAACTTCGAATCTCATTT [YZ9],binding result,Sp1 [4],binds
CCTGCCAGGTCGCGCTGCCCTCCTTCTACCATGCCTTAGGAGAATTGTTTTGTTT / GGTAGAAGGAGGGCAGCGCGACCTGGCAGG [YZ-11 (Table 17)],activity on this sequence,"Sp1 [5]; label: IRDye 700 or Cy3, counted as no …",0 signal
CGTGGAATTTCCTCTGTTGTATAGTTTGAGGGATGCTATGT [YZ5],binding result,NF-kB p65 (NFkb65) [2],binds
CGTTAACTTTCCTCTGTTGTATAGTTTGAGGGATGCTATGT [YZ6],binding result,"NF-kB p65 (NFkb65) [1]; 100:1 unlabeled mutant did not affect YZ5 binding, variant of YZ5",no binding
GTCCAAAGTCAGAACACAGTGATTTGATCAATGCCTTAGGAGAATTGTTTTGTTT [YZ12],binding result,Estrogen receptor alpha [6],no binding
GTCCAAAGTCAGGTCACAGTGACCTGATCAAAGTTATGCCTTAGGAGAATTGTTTTGTTT [YZ11],binding result,Estrogen receptor alpha [7],binds
TCCTAGCTTCAGAGGGGACTTTCCGAGAGGACCTGAAGAAATGGTTTTGAATCAT / CCTCTCGGAAAGTCCCCTCTGAAGCTAGGA [YZ-7 (Table 17)],activity on this sequence,"Sp1 [5]; printed YZ-7f tag does not match Y-7t, label: Cy3, counted as no effect",0 signal
